Measurements reported in PubChem BioAssay AID686938 (Drosophila RNAi Screening Center, 2013).
The deposit covers about 23,000 reagents; below is a random part of those that have a named target and a result. Over the whole deposit, 75 (0.33%) got an active call. 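Raw plate signals without normalisation; calls rest on plate z-scores that were not deposited; ratio present for only 364 wells.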 Entries without a mark were called inactive. Reagents against one gene are numbered here. Names joined by + are all predicted targets of the reagent. Not given: the dose of the treatment.

Purpose: 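Looking for CRAC channel components and the factors controlling them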 (primary screen)
Cell system: Drosophila S2R+ cells
Knock-down reagent: long dsRNA against Drosophila genes, about 0.25 µg dsRNA per well, roughly 10,000 cells
Time to read-out: 5 days of knock-down before the calcium assay
Conditions: thapsigargin (SERCA pump blocker) to empty calcium stores; entry signal taken 4 min after adding it
Measurement: 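Duplicate raw fluo-4 intensities per well from a plate reader, at rest and four minutes after thapsigargin emptied calcium stores; entry-to-rest ratio filled for only some wells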
Reading the numbers: calcium entry signal: higher = stronger calcium signal after store depletion; entry to resting ratio: higher = more calcium entry relative to resting level; resting calcium signal: higher = higher resting calcium signal
Call rule: 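Called when the plate z-score of the entry-to-rest ratio, mean of duplicates, falls below −3; wells with low overall dye signal (Fmax z below −2) or more than five off-targets excluded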
Calls: active = strongly reduced calcium entry; inactive = no strong reduction

Gene | reagent | calcium entry signal, replicate 1 (fluorescence units) | calcium entry signal, replicate 2 (fluorescence units) | entry to resting ratio | resting calcium signal, replicate 1 (fluorescence units) | resting calcium signal, replicate 2 (fluorescence units)
CG8958 | 1 | 3.82e7 | 3.43e7 | – | 1.96e7 | 1.57e7
CG33099 | 1 | 4.28e7 | 2.84e7 | – | 1.98e7 | 1.39e7
Bgb | 1 | 4.09e7 | 3.89e7 | – | 1.83e7 | 1.73e7
CG18764 | 1 | 3.86e7 | 3.61e7 | – | 1.91e7 | 1.78e7
Mst87F (Male-specific RNA 87F) | 1 | 3.81e7 | 6.04e7 | – | 1.87e7 | 6.91e7
CG6420 | 1 | 2.76e7 | 3.31e7 | – | 1.40e7 | 1.45e7
asRNA:CR43469 + Balat | 1 | 3.91e7 | 4.83e7 | – | 1.72e7 | 2.06e7
CG9674 | 1 | 2.17e7 | 3.41e7 | – | 1.22e7 | 2.38e7
CG9674 | 2 | 3.29e7 | 5.80e7 | – | 1.82e7 | 2.34e7
CG12617 | 1 | 3.75e7 | 4.28e7 | – | 1.97e7 | 1.91e7
lncRNA:CR32661 + lncRNA:CR43157 | 1 | 4.67e7 | 6.09e7 | – | 2.23e7 | 2.90e7
chif (chiffon) | 1 | 3.10e7 | – | – | 1.91e7 | –
ste24c + CR30461 (retired record) | 1 | 2.79e7 | 4.68e7 | – | 1.41e7 | 2.27e7
ste24c + CR30461 (retired record) | 2 | 3.89e7 | 4.33e7 | – | 1.71e7 | 2.04e7
x16 (x16 splicing factor) | 1 | 3.72e7 | 3.33e7 | – | 2.17e7 | 1.55e7
x16 (x16 splicing factor) | 2 | 3.54e7 | – | – | 2.02e7 | –
Apoltp (Apolipoprotein lipid transfer particle) | 1 | 4.62e7 | – | – | 2.24e7 | –
cwo (clockwork orange) | 1 | 3.35e7 | 4.11e7 | – | 2.08e7 | 2.24e7
Prtl99C (Protamine-like 99C) | 1 | 3.79e7 | 6.17e7 | – | 1.93e7 | 2.54e7
CG13699 | 1 | 3.88e7 | 7.07e7 | – | 1.94e7 | 2.61e7
CG17097 | 1 | 3.04e7 | 4.45e7 | – | 1.69e7 | 2.04e7
CG12964 | 1 | 3.70e7 | 2.51e7 | – | 2.11e7 | 1.37e7
CG12964 | 2 | 4.72e7 | 3.76e7 | – | 2.51e7 | 1.79e7
CG33494 | 1 | 2.51e7 | 3.59e7 | – | 1.33e7 | 1.82e7
CG4480 | 1 | 3.63e7 | 2.26e7 | – | 1.61e7 | 1.04e7
caly (calypso) | 1 | 3.16e7 | 3.82e7 | – | 1.56e7 | 1.85e7
CG10384 | 1 | 3.34e7 | 6.20e7 | – | 1.49e7 | 2.25e7
CG10384 | 2 | 2.69e7 | 2.43e7 | – | 1.62e7 | 1.32e7
pst (pastrel) | 1 | 4.57e7 | 4.05e7 | – | 2.67e7 | 1.61e7
Klp67A (Kinesin-like protein at 67A) | 1 | 1.20e7 | 2.18e7 | – | 7.01e6 | 1.06e7
CG8301 | 1 | 2.83e7 | 3.05e7 | – | 1.37e7 | 1.63e7
Pi4KIIIalpha (Phosphatidylinositol 4-kinase III alpha) | 1 | 4.24e7 | 4.28e7 | 2 | 2.13e7 | 1.87e7
Ect3 (Ectoderm-expressed 3) | 1 | 3.80e7 | 3.24e7 | – | 1.76e7 | 1.67e7
unc80 (uncoordinated 80) | 1 | 2.81e7 | 3.84e7 | – | 1.45e7 | 1.63e7
CG31436 | 1 | 3.68e7 | 4.33e7 | – | 2.12e7 | 1.71e7
CG8360 | 1 | 3.91e7 | 3.17e7 | – | 1.96e7 | 1.47e7
CG14448 | 1 | 2.76e7 | 3.67e7 | – | 1.36e7 | 1.49e7
Cip4 (Cdc42-interacting protein 4) | 1 | 4.47e7 | 3.52e7 | – | 2.07e7 | 1.57e7
Cip4 (Cdc42-interacting protein 4) | 2 | 4.43e7 | 3.40e7 | – | 3.12e7 | 1.49e7
Cip4 (Cdc42-interacting protein 4) | 3 | 2.41e7 | 3.88e7 | – | 1.26e7 | 1.70e7
CG7101 | 1 | 4.45e7 | 4.97e7 | – | 2.09e7 | 2.08e7
CG7101 | 2 | 2.59e7 | 3.96e7 | – | 1.39e7 | 1.84e7
scny (scrawny) | 1 | 3.22e7 | 1.95e7 | – | 2.21e7 | 9.13e6
scny (scrawny) | 2 | 4.29e7 | 4.43e7 | – | 2.24e7 | 2.31e7
scny (scrawny) | 3 | 3.76e7 | 4.23e7 | – | 1.95e7 | 1.88e7
Polr3H (RNA polymerase III subunit H) | 1 | 2.13e7 | 1.95e7 | – | 1.16e7 | 9.04e6
bb8 (big bubble 8) | 1 | 4.16e7 | 4.48e7 | – | 2.09e7 | 1.92e7
CG15930 | 1 | 1.74e7 | 2.81e7 | – | 9.27e6 | 1.43e7
CG32376 | 1 | 4.02e7 | 3.57e7 | – | 2.22e7 | 1.69e7

Look-ups from above:
Entry for scny (scrawny) #3 in “resting calcium signal, replicate 2 (fluorescence units)”: 1.88e7
For “resting calcium signal, replicate 2 (fluorescence units)”, Cip4 (Cdc42-interacting protein 4) #3 has 1.70e7
Under “calcium entry signal, replicate 1 (fluorescence units)”, CG7101 #1 is entered as 4.45e7
For “calcium entry signal, replicate 1 (fluorescence units)”, CG14448 shows 2.76e7

Further reagents follow.
Gene | reagent | calcium entry signal, replicate 1 (fluorescence units) | calcium entry signal, replicate 2 (fluorescence units) | entry to resting ratio | resting calcium signal, replicate 1 (fluorescence units) | resting calcium signal, replicate 2 (fluorescence units)
CG30154 | 1 | 2.24e7 | 4.10e7 | – | 1.17e7 | 1.84e7
Sgt1 (suppressor-of-G2-allele-of-skp1) | 1 | 4.15e7 | 3.56e7 | – | 1.99e7 | 1.78e7
PpD6 (Protein phosphatase D6) | 1 | 3.10e7 | 2.22e7 | – | 1.56e7 | 1.07e7
PpD6 (Protein phosphatase D6) | 2 | 3.11e7 | 3.37e7 | – | 1.71e7 | 1.52e7
Alr (Augmenter of liver regeneration) | 1 | 3.42e7 | 4.33e7 | – | 1.48e7 | 1.78e7
CG33458 | 1 | 4.15e7 | 3.31e7 | – | 2.42e7 | 1.61e7
sgll (sugarlethal) | 1 | 4.01e7 | 3.20e7 | – | 1.90e7 | 1.57e7
CG30288 | 1 | 2.36e7 | 4.74e7 | – | 1.19e7 | 2.39e7
UQCR-C1 (Ubiquinol-cytochrome c reductase core protein 1) | 1 | 3.44e7 | 4.11e7 | – | 1.66e7 | 2.06e7
CG4269 | 1 | 3.91e7 | 4.19e7 | – | 1.97e7 | 1.97e7
CG9747 | 1 | 4.87e7 | 4.38e7 | – | 2.27e7 | 2.36e7
CG7182 | 1 | 3.29e7 | 1.82e7 | – | 2.34e7 | 8.69e6
CG7091 | 1 | 2.69e7 | 3.52e7 | – | 1.23e7 | 1.55e7
CG7091 | 2 | 2.01e7 | 3.30e7 | – | 9.95e6 | 5.39e7
Argk2 (Arginine kinase 2) | 1 | 4.12e7 | 3.77e7 | – | 1.75e7 | 1.50e7
Argk2 (Arginine kinase 2) | 2 | 3.00e7 | 3.02e7 | – | 1.55e7 | 1.51e7
Pdi (Protein disulfide isomerase) | 1 | 3.67e7 | 6.03e7 | – | 2.12e7 | 2.46e7
CG11379 | 1 | 5.76e7 | 4.99e7 | 2.2 | 2.59e7 | 1.98e7
CG7634 | 1 | 2.70e7 | 3.87e7 | – | 1.20e7 | 1.68e7
Mdr65 (Multi drug resistance 65) | 1 | 2.97e7 | 4.70e7 | – | 1.48e7 | 2.09e7
Pis (Phosphatidylinositol synthase) | 1 | 2.83e7 | 3.33e7 | – | 1.51e7 | 1.49e7
Phax (Phosphorylated adaptor for RNA export) | 1 | 5.02e7 | 4.59e7 | – | 2.25e7 | 1.91e7
Timp (Tissue inhibitor of metalloproteases) | 1 | 3.99e7 | 4.81e7 | – | 1.76e7 | 2.11e7
dsb (debris buster) | 1 | 1.81e7 | 2.74e7 | – | 1.18e7 | 1.42e7
dsb (debris buster) | 2 | 2.64e7 | 3.14e7 | – | 1.42e7 | 1.49e7
Acp53C14b (Accessory gland protein 53C14b) | 1 | 3.78e7 | 4.90e7 | – | 1.79e7 | 2.50e7
